Test results reported in the supplement of paper PMC8616043.
Where a name gives a salt, the structure may show the parent alone. The list shows a part of the results. Repeats in this data set agree poorly, so a single value says little.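 Human U-2 OS cells stably expressing a GFP sensor with a nuclear import signal and classical export signal were transfected to produce PR50, a 50-repeat proline–arginine dipeptide from ALS/FTD gene C9ORF72. Nuclear-minus-cytoplasm GFP was scaled from DMSO (low) to PR-only (high), scored against plate test wells; strongly negative scores marked PR-reversing hits.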

Tested on: U-2 OS NCT-C biosensor cells expressing PR50
Assay: Z-score of normalised NCT-C biosensor translocation index in PR50-expressing cells; higher = more nuclear biosensor (more disrupted nuclear export)
Conditions: 3 µM; 24 h

| Compound | Z-score |
| --- | --- |
| O=c1oc2c(O)c(O)cc3c(=O)oc4c(O)c(O)cc1c4c23 [Ellagic Acid] | inactive: -1.82 |
| O=c1oc2c(O)c(O)cc3c(=O)oc4c(O)c(O)cc1c4c23 [Ellagic acid] | inactive: 0.178 |
| CC[C@@H]1C(=O)OC[C@@H]1Cc1cncn1C [(+)-Pilocarpine hydrochloride] | inactive: 0.909 |
| CC[C@@H]1C(=O)OC[C@@H]1Cc1cncn1C [Pilocarpine] | inactive: -0.236 |
| CC[C@@H]1C(=O)OC[C@@H]1Cc1cncn1C [Pilocarpine nitrate salt] | inactive: 0.575 |
| CC[C@@H]1C(=O)OC[C@@H]1Cc1cncn1C [Pilocarpine·HCl] | inactive: -1.91 |
| CN1C(=O)CC[C@H]1c1cccnc1 [(-)-Cotinine] | inactive: -0.653 |
| CC(C)=CCC(OC(=O)C=C(C)C)C1=CC(=O)c2c(O)ccc(O)c2C1=O (stereo not drawn) [(β,β-Dimethylacryl) Shikonin] | inactive: 0.666 |
| CCn1c(=O)[nH]c2cc(Cl)c(Cl)cc21 | inactive: -0.536 |
| O=C(Nc1cc(C(F)(F)F)cc(C(F)(F)F)c1)Nc1c(Br)cc(Br)cc1-c1nn[nH]n1 | inactive: -0.12 |
| OC[C@H]1O[C@@H](n2cnc3c(N[C@H]4CCC[C@@H]4O)ncnc32)[C@H](O)[C@@H]1O | inactive: -0.269 |
| NS(=O)(=O)c1cc2c(cc1C(F)(F)F)NCNS2(=O)=O [Hydroflumethiazide] | inactive: 0.553 |
| COC1(C2=NCCN2)COc2ccccc2O1 (stereo not drawn) | inactive: -0.196 |
| N[C@@H](Cc1c[nH]c2ccccc12)C(=O)O [L-Tryptophan] | inactive: -0.842 |
| Nc1cc(=O)[nH]c(N)n1 [2,4-Diamino-6-hydroxypyrimidine] | inactive: -0.668 |
| OCc1c[nH]c2ccccc12 [Indole-3-carbinol] | inactive: -0.145 |
| O=C(/C=C/c1ccc(O)cc1)c1ccc(O)cc1O [Isoliquiritigenin] | inactive: 0.788 |
| N#Cc1ccc(-c2csc(NN=C3CCCC3)n2)cc1 [Remodelin hydrobromide] | inactive: -0.236 |
| CS(=O)(=O)OCCCCOS(C)(=O)=O [Busulfan] | inactive: -0.162 |
| Cc1[nH]c(=O)c(C#N)cc1-c1ccc2nccn2c1 [Olprinone hydrochloride] | inactive: -1.03 |
| CC(=O)O[C@H]1C(=O)[C@@]2(C)[C@H]([C@H](OC(=O)c3ccccc3)[C@]3(O)C[C@H](OC(=O)[C@H](O)[C@@H](NC(=O)c4ccccc4)c4ccccc4)C(C)=C1C3(C)C)[C@]1(OC(C)=O)CO[C@@H]1C[C@@H]2O [Paclitaxel (Taxol)] | inactive: 0.0236 |
| CC(=O)O[C@H]1C(=O)[C@@]2(C)[C@H]([C@H](OC(=O)c3ccccc3)[C@]3(O)C[C@H](OC(=O)[C@H](O)[C@@H](NC(=O)c4ccccc4)c4ccccc4)C(C)=C1C3(C)C)[C@]1(OC(C)=O)CO[C@@H]1C[C@@H]2O [Taxol] | inactive: 0.805 |
| COc1cccc2c1C(=O)c1c(O)c3c(c(O)c1C2=O)C[C@@](O)(C(=O)CO)C[C@@H]3O[C@H]1C[C@H](N)[C@@H](O)[C@H](C)O1 [Epirubicin·HCl] | inactive: -0.568 |

14 neighbouring records from above, for reference:

| Compound | Z-score |
| --- | --- |
| O=c1oc2c(O)c(O)cc3c(=O)oc4c(O)c(O)cc1c4c23 [Ellagic acid] | inactive: 0.178 |
| CC[C@@H]1C(=O)OC[C@@H]1Cc1cncn1C [(+)-Pilocarpine hydrochloride] | inactive: 0.909 |
| CC[C@@H]1C(=O)OC[C@@H]1Cc1cncn1C [Pilocarpine] | inactive: -0.236 |
| CC[C@@H]1C(=O)OC[C@@H]1Cc1cncn1C [Pilocarpine nitrate salt] | inactive: 0.575 |
| CC[C@@H]1C(=O)OC[C@@H]1Cc1cncn1C [Pilocarpine·HCl] | inactive: -1.91 |
| CN1C(=O)CC[C@H]1c1cccnc1 [(-)-Cotinine] | inactive: -0.653 |
| CC(C)=CCC(OC(=O)C=C(C)C)C1=CC(=O)c2c(O)ccc(O)c2C1=O (stereo not drawn) [(β,β-Dimethylacryl) Shikonin] | inactive: 0.666 |
| CCn1c(=O)[nH]c2cc(Cl)c(Cl)cc21 | inactive: -0.536 |
| O=C(Nc1cc(C(F)(F)F)cc(C(F)(F)F)c1)Nc1c(Br)cc(Br)cc1-c1nn[nH]n1 | inactive: -0.12 |
| OC[C@H]1O[C@@H](n2cnc3c(N[C@H]4CCC[C@@H]4O)ncnc32)[C@H](O)[C@@H]1O | inactive: -0.269 |
| NS(=O)(=O)c1cc2c(cc1C(F)(F)F)NCNS2(=O)=O [Hydroflumethiazide] | inactive: 0.553 |
| COC1(C2=NCCN2)COc2ccccc2O1 (stereo not drawn) | inactive: -0.196 |
| N[C@@H](Cc1c[nH]c2ccccc12)C(=O)O [L-Tryptophan] | inactive: -0.842 |
| Nc1cc(=O)[nH]c(N)n1 [2,4-Diamino-6-hydroxypyrimidine] | inactive: -0.668 |

2 entries from above, tab-delimited:
Compound	Z-score
O=C(/C=C/c1ccc(O)cc1)c1ccc(O)cc1O [Isoliquiritigenin]	inactive: 0.788
N#Cc1ccc(-c2csc(NN=C3CCCC3)n2)cc1 [Remodelin hydrobromide]	inactive: -0.236

Remaining list, next part.

| Compound | Z-score |
| --- | --- |
| N=C(N)c1ccc(N)cc1 [4-Amino benzamidine diHCl] | inactive: 0.0978 |
| CCCN(CCC)CCc1cccc2c1CC(=O)N2 [Ropinirole hydrochloride] | inactive: -0.777 |
| CCCN(CCC)CCc1cccc2c1CC(=O)N2 [Ropinirole·HCl] | inactive: -0.751 |
| C=C(C)[C@@H]1CC[C@]2(CO)CC[C@]3(C)[C@H](CC[C@@H]4[C@@]5(C)CC[C@H](O)C(C)(C)[C@@H]5CC[C@]43C)[C@@H]12 [Betulin] | inactive: 0.143 |
| CCCCC[C@H](O)/C=C/[C@H]1[C@H](O)CC(=O)[C@@H]1C/C=C\CCCC(=O)O [Dinoprostone] | inactive: -1.18 |
| CCCCC[C@H](O)/C=C/[C@H]1[C@H](O)CC(=O)[C@@H]1C/C=C\CCCC(=O)O [Prostaglandin E2] | inactive: -0.666 |
| CCCn1c(=O)c2[nH]c(C3CCCC3)nc2n(CCC)c1=O [8-Cyclopentyl-1,3- dipropylxanthine] | inactive: -0.26 |
| N/C(=N\C(=O)c1nc(Cl)c(N)nc1N)NCc1ccccc1 [Benzamil hydrochloride] | inactive: 2.49 |
| O=C(CCNNC(=O)c1ccncc1)NCc1ccccc1 [Nialamide] | inactive: 0.131 |
| Cc1nc2ccccn2c(=O)c1CCN1CCC(C(=O)c2ccc(F)cc2)CC1 [Pirenperone] | inactive: 0.168 |
| Cc1ccccc1N1CCN(CCc2nnc3n2CCCC3)CC1 [Dapiprazole hydrochloride] | inactive: -0.268 |
| CCC(=O)c1ccc2c(c1)N(CCCN(C)C)c1ccccc1S2 [Propionylpromazine HCl] | inactive: -0.738 |
| Nc1ccc(-c2ccc3ncc4ccc(=O)n(-c5cccc(C(F)(F)F)c5)c4c3c2)cn1 [Torin2] | inactive: 2.01 |
| NC(=O)c1cnccn1 [Pyrazine carboxamide] | inactive: -0.578 |
| NC(=O)c1cnccn1 [Pyrazinamide] | inactive: -0.0732 |
| COc1cc2nc(N3CCCC3)nc(NCCCCCN3CCCC3)c2cc1OC [UNC0379  trifluoroacetate salt] | inactive: -0.0306 |
| O=C(c1cccc(-c2ccc(-c3cn(C(=O)N4CCCCC4c4ccccc4)nn3)cc2)c1)N1CCCCC1 (stereo not drawn) | inactive: 0.639 |
| Oc1ccc(-c2nc(-c3ccc(F)cc3)c(-c3ccncc3)[nH]2)cc1 | inactive: 2.53 |
| O=c1n(CCCN2CCN(c3cccc(Cl)c3)CC2)nc2ccccn12 [Trazodone·HCl] | inactive: 0.421 |
| O=c1n(CCCN2CCN(c3cccc(Cl)c3)CC2)nc2ccccn12 [Trazodone hydrochloride] | inactive: -0.995 |
| Cc1ccccc1C(C(=O)NC1CCCCC1)N(C(=O)Cn1ccnc1C)c1cccc(F)c1 (stereo not drawn) | inactive: 0.136 |
| CCOc1cc(C(=O)Nc2ccc(Cl)c(-c3nc4ccccc4[nH]3)c2)cc(OCC)c1OCC | inactive: -1.81 |
| CC1(C)S[C@@H]2[C@H](NC(=O)[C@H](N)c3ccccc3)C(=O)N2[C@H]1C(=O)O [Ampicillin Trihydrate] | inactive: 0.0491 |

| Compound | Z-score |
| --- | --- |
| C=C[C@H]1CN2CC[C@H]1C[C@H]2[C@H](O)c1ccnc2ccc(OC)cc12 [Quinine sulfate] | inactive: 0.257 |
| C=C[C@H]1CN2CC[C@H]1C[C@H]2[C@H](O)c1ccnc2ccc(OC)cc12 [Quinine·HCl·2H2O] | inactive: 0.0763 |
| Nc1cc(N2CCCCC2)nc(N)[n+]1[O-] [Minoxidil] | inactive: -0.445 |
| COc1ccc2cc([C@H](C)C(=O)O)ccc2c1 [(-)-Naproxen sodium salt] | inactive: 0.176 |
| COc1ccc2cc([C@H](C)C(=O)O)ccc2c1 [Naproxen] | inactive: 0.157 |
| CC1=CC(=O)CC(C)(C)C1(O)/C=C/C(C)=C\C(=O)O (racemic) [(±)-Abscisic acid] | inactive: 0.194 |
| C[C@]12CCC(=O)C=C1[C@@H]1C[C@@H]1[C@H]1[C@@H]3[C@@H]4C[C@@H]4[C@@]4(CCC(=O)O4)[C@@]3(C)CC[C@@H]12 [Drospirenone] | inactive: -0.246 |
| OC1(c2ccc(Cl)cc2)CCN(Cc2c[nH]c3ccccc23)CC1 | inactive: -0.687 |
| N#Cc1c(N2CCCC2)nc(N)c2c(N)nc(N3CCCC3)cc12 | inactive: 0.059 |
| COc1ccc(C[C@H]2c3cc(OC)c(OC)cc3CC[N+]2(C)C)cc1OC [Laudanosine methiodide] | inactive: 0.075 |
| O=C(O)c1cc(/N=N/c2ccc(S(=O)(=O)Nc3ccccn3)cc2)ccc1O [Sulfasalazine] | inactive: 0.676 |
| O=C(O)c1cc2cc(Cc3cccnc3)ccc2o1 [Furegrelate sodium salt] | inactive: -0.831 |
| C#C[C@]1(O)CC[C@H]2[C@@H]3CCC4=CC(=O)CC[C@@H]4[C@H]3C(=C)C[C@@]21CC [Etonogestrel] | inactive: 0.384 |
| O=C(O)c1cc(N(Cc2ccccc2O)Cc2cc(O)ccc2O)ccc1O [Lavendustin A] | inactive: 0.934 |
| CN/C(=N\CCSCc1nc[nH]c1C)NC#N [Cimetidine] | inactive: -0.271 |
| c1ccc(C2CN3CCSC3=N2)cc1 (single isomer, unassigned; (-)) [(-)-Tetramisole hydrochloride] | inactive: -0.638 |
| C/C(=C\C(=O)OCCCCCCCCC(=O)O)C[C@@H]1OC[C@H](C[C@@H]2O[C@H]2[C@@H](C)[C@H](C)O)[C@@H](O)[C@H]1O [Mupirocin] | inactive: -0.49 |
| C[C@@H]1C[C@H]2[C@@H]3CCC4=CC(=O)C=C[C@]4(C)[C@@]3(Cl)[C@@H](O)C[C@]2(C)[C@@]1(OC(=O)c1ccco1)C(=O)CCl [Mometasone Furoate] | inactive: -0.0554 |
| O=C(O)[C@H](CC(=O)N1C[C@H]2CCCC[C@H]2C1)Cc1ccccc1 [Mitiglinide calcium] | inactive: -0.0263 |
| C[C@]12CCC3=C4CCC(=O)C=C4CC[C@H]3[C@@H]1CC[C@@]2(O)CC#N [Dienogest] | inactive: -0.327 |
| c1coc(CNc2ncnc3[nH]cnc23)c1 [Kinetin] | inactive: -0.211 |
| COc1cc2ncnc(-n3nc(-c4ccccn4)nc3N)c2cc1OC | inactive: 0.2 |
